Results taken from the supplement of paper PMC8728848.
This is one part of the list.

Tests used:
Assay in all cases: glycan array binding signal (z-score within array); higher = stronger binding
Settings in all cases: glycan notation: IUPAC condensed, linker removed
[1] = target: Neu5Ac(a2-6)Gal(b1-4)GlcNAc(b1-3)Gal(b1-4)GlcNAc(b1-3)GalNAc
Summary of the method: (§1)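 Negative Z-scores can be read as non-binding. The Z-score is calculated within each array and then averaged across arrays of one protein sequence at different concentrations or buffers and across linkers. Arrays, 3228 in all, were curated from the Consortium for Functional Glycomics database and kept only where the protein sequence was available.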

[2] = target: Neu5Ac(a2-6)Gal(b1-4)GlcNAc(b1-3)Gal(b1-4)GlcNAc(b1-3)[Neu5Ac(a2-6)Gal(b1-4)GlcNAc(b1-3)Gal(b1-4)GlcNAc(b1-6)]GalNAc
Summary of the method: as §1

[3] = target: Neu5Ac(a2-6)Gal(b1-4)GlcNAc(b1-3)Gal(b1-4)GlcNAc(b1-6)[Gal(b1-3)]GalNAc
Summary of the method: as §1

[4] = target: Neu5Ac(a2-6)Gal(b1-4)GlcNAc(b1-3)Gal(b1-4)[Fuc(a1-3)]GlcNAc(b1-3)Gal(b1-4)[Fuc(a1-3)]GlcNAc
Summary of the method: as §1

[5] = target: Neu5Ac(a2-6)Gal(b1-4)GlcNAc(b1-3)GalNAc
Summary of the method: as §1

[6] = target: Neu5Ac(a2-6)Gal(b1-4)GlcNAc(b1-3)[Neu5Ac(a2-6)Gal(b1-4)GlcNAc(b1-6)]GalNAc
Summary of the method: as §1

[7] = target: Neu5Ac(a2-6)Gal(b1-4)GlcNAc(b1-6)GalNAc
Summary of the method: as §1

[8] = target: Neu5Ac(a2-6)Gal(b1-4)GlcNAc(b1-6)[Gal(b1-3)GlcNAc(b1-3)]Gal(b1-4)Glc
Summary of the method: as §1

[9] = target: Neu5Ac(a2-6)Gal(b1-4)GlcNAc(b1-6)[Gal(b1-3)]GalNAc
Summary of the method: as §1

[10] = target: Neu5Ac(a2-6)Gal(b1-4)GlcNAc6S
Summary of the method: as §1

[11] = target: Neu5Ac(a2-6)GalNAc
Summary of the method: as §1

[12] = target: Neu5Ac(a2-6)GalNAc(b1-4)GlcNAc
Summary of the method: as §1

[13] = target: Neu5Ac(a2-6)GalNAc(b1-4)GlcNAc6S
Summary of the method: as §1

[14] = target: Neu5Ac(a2-6)GlcNAc(b1-4)GlcNAc
Summary of the method: as §1

[15] = target: Neu5Ac(a2-6)GlcNAc(b1-4)GlcNAc(b1-4)GlcNAc
Summary of the method: as §1

[16] = target: Neu5Ac(a2-8)Neu5Ac
Summary of the method: as §1

[17] = target: Neu5Ac(a2-8)Neu5Ac(a2-3)Gal(b1-3)GalNAc(b1-4)[Neu5Ac(a2-3)]Gal(b1-4)Glc
Summary of the method: as §1

[18] = target: Neu5Ac(a2-8)Neu5Ac(a2-3)Gal(b1-3)GalNAc(b1-4)[Neu5Ac(a2-8)Neu5Ac(a2-3)]Gal(b1-4)Glc
Summary of the method: as §1

[19] = target: Neu5Ac(a2-8)Neu5Ac(a2-3)Gal(b1-4)Glc
Summary of the method: as §1

[20] = target: Neu5Ac(a2-8)Neu5Ac(a2-3)Gal(b1-4)GlcNAc
Summary of the method: as §1

[21] = target: Neu5Ac(a2-8)Neu5Ac(a2-3)[Gal(b1-3)GalNAc(b1-4)]Gal(b1-4)Glc
Summary of the method: as §1

[22] = target: Neu5Ac(a2-8)Neu5Ac(a2-3)[GalNAc(b1-4)]Gal(b1-4)Glc
Summary of the method: as §1

[23] = target: Neu5Ac(a2-8)Neu5Ac(a2-8)Neu5Ac
Summary of the method: as §1

[24] = target: Neu5Ac(a2-8)Neu5Ac(a2-8)Neu5Ac(a2-3)Gal(b1-4)Glc
Summary of the method: as §1

[25] = target: Neu5Ac(a2-8)Neu5Ac(a2-8)Neu5Ac(a2-3)[Gal(b1-3)GalNAc(b1-4)]Gal(b1-4)Glc
Summary of the method: as §1

[26] = target: Neu5Ac(a2-8)Neu5Ac(a2-8)Neu5Ac(a2-3)[GalNAc(b1-4)]Gal(b1-4)Glc
Summary of the method: as §1

[27] = target: Neu5Ac(a2-8)Neu5Ac(a2-8)Neu5Ac(a2-8)Neu5Ac(a2-3)[GalNAc(b1-4)]Gal(b1-4)Glc
Summary of the method: as §1

[28] = target: Neu5Ac(a2-8)Neu5Gc(a2-3)Gal(b1-4)GlcNAc
Summary of the method: as §1

[29] = target: Neu5Ac(b2-6)Gal(b1-4)GlcNAc
Summary of the method: as §1

[30] = target: Neu5Ac(b2-6)GalNAc
Summary of the method: as §1

[31] = target: Neu5Ac9Ac(a2-3)Gal(b1-3)GlcNAc
Summary of the method: as §1

[32] = target: Neu5Ac9Ac(a2-3)Gal(b1-4)GlcNAc
Summary of the method: as §1

[33] = target: Neu5Ac9Ac(a2-6)Gal(b1-4)GlcNAc
Summary of the method: as §1

[34] = target: Neu5Gc(a2-3)Gal(b1-3)GlcNAc
Summary of the method: as §1

[35] = target: Neu5Gc(a2-3)Gal(b1-3)[Fuc(a1-4)]GlcNAc
Summary of the method: as §1

[36] = target: Neu5Gc(a2-3)Gal(b1-4)Glc
Summary of the method: as §1

[37] = target: Neu5Gc(a2-3)Gal(b1-4)GlcNAc
Summary of the method: as §1

[38] = target: Neu5Gc(a2-3)Gal(b1-4)GlcNAc(b1-3)Gal(b1-4)GlcNAc(b1-2)Man(a1-3)[Neu5Gc(a2-3)Gal(b1-4)GlcNAc(b1-3)Gal(b1-4)GlcNAc(b1-2)Man(a1-6)]Man(b1-4)GlcNAc(b1-4)GlcNAc
Summary of the method: as §1

[39] = target: Neu5Gc(a2-3)Gal(b1-4)[Fuc(a1-3)]GlcNAc
Summary of the method: as §1

[40] = target: Neu5Gc(a2-6)Gal(b1-4)GlcNAc
Summary of the method: as §1

[41] = target: Neu5Gc(a2-6)GalNAc
Summary of the method: as §1

[42] = target: Neu5Gc(a2-8)Neu5Ac(a2-3)Gal(b1-4)GlcNAc
Summary of the method: as §1

[43] = target: Neu5Gc(a2-8)Neu5Gc(a2-3)Gal(b1-4)GlcNAc
Summary of the method: as §1

[44] = target: Neu5Gc(a2-8)Neu5Gc(a2-3)Gal(b1-4)GlcNAc(b1-3)Gal(b1-4)GlcNAc
Summary of the method: as §1

[45] = target: Neu5Gc(a2-8)Neu5Gc(a2-6)Gal(b1-4)GlcNAc
Summary of the method: as §1

[46] = target: Neu5Gc(b2-6)Gal(b1-4)GlcNAc
Summary of the method: as §1

B1: HFR-3 (Triticum aestivum) (protein)
chain: MKGLLLCALALAFAAVTTHAQLQSCPTRCGKQADGMECPNNLCCSKDGYCGLGVDYCSAGAGCQSGACYDNKICGAQANGTLCRNNHCCSSGGRCGYGREYCSNGCQGGPCWADLKCGHLDNGKLCPNNLCCSQYGYCGLGPEFCGTGCQNGACSTDKPCGNKANGAPCTNNYCCSQYGSCGLGKDYCGTGCQNGACN
In the case of B1, the “glycan array binding signal (z-score)” value [1] is reported as -0.559, the “glycan array binding signal (z-score)” value [2] is reported as 0.943 and the “glycan array binding signal (z-score)” value [3] is reported as 0.517. For the same binder, the “glycan array binding signal (z-score)” value [4] was -0.623, the “glycan array binding signal (z-score)” value [5] was -1.71 and the “glycan array binding signal (z-score)” value [6] was -1.33. The “glycan array binding signal (z-score)” value [7] was 1.13, the “glycan array binding signal (z-score)” value [8] was -0.251 and the “glycan array binding signal (z-score)” value [9] was 0.02. For the same binder, the “glycan array binding signal (z-score)” value [10] was -0.691, the “glycan array binding signal (z-score)” value [11] was -0.572 and the “glycan array binding signal (z-score)” value [12] was -0.965. For the same binder, the “glycan array binding signal (z-score)” value [13] was -0.863, the “glycan array binding signal (z-score)” value [14] was -1.25 and the “glycan array binding signal (z-score)” value [15] was -0.465. The “glycan array binding signal (z-score)” value [16] was 0.138, the “glycan array binding signal (z-score)” value [17] was -1.43 and the “glycan array binding signal (z-score)” value [18] was 0.674. The “glycan array binding signal (z-score)” value [19] was -1.54, the “glycan array binding signal (z-score)” value [20] was -0.058 and the “glycan array binding signal (z-score)” value [21] was -0.252. The “glycan array binding signal (z-score)” value [22] was -0.57, the “glycan array binding signal (z-score)” value [23] was 0.012 and the “glycan array binding signal (z-score)” value [24] was -1.8. For the same binder, the “glycan array binding signal (z-score)” value [25] was 0.423, the “glycan array binding signal (z-score)” value [26] was -0.316 and the “glycan array binding signal (z-score)” value [27] was -0.885. For the same binder, the “glycan array binding signal (z-score)” value [28] was -0.994, the “glycan array binding signal (z-score)” value [29] was 0.213 and the “glycan array binding signal (z-score)” value [30] was -0.685. For the same binder, the “glycan array binding signal (z-score)” value [31] was 0.493, the “glycan array binding signal (z-score)” value [32] was -0.326 and the “glycan array binding signal (z-score)” value [33] was -0.973. The “glycan array binding signal (z-score)” value [34] was -0.969, the “glycan array binding signal (z-score)” value [35] was 0.891 and the “glycan array binding signal (z-score)” value [36] was -0.496. For the same binder, the “glycan array binding signal (z-score)” value [37] was 1.68, the “glycan array binding signal (z-score)” value [38] was -0.36 and the “glycan array binding signal (z-score)” value [39] was -1.29. The “glycan array binding signal (z-score)” value [40] was 1.39, the “glycan array binding signal (z-score)” value [41] was -0.676 and the “glycan array binding signal (z-score)” value [42] was -0.504. The “glycan array binding signal (z-score)” value [43] was -0.961, the “glycan array binding signal (z-score)” value [44] was 1.02 and the “glycan array binding signal (z-score)” value [45] was 0.199. The “glycan array binding signal (z-score)” value [46] was 0.001.
